Laboratory results published in article doi:10.1101/2025.03.28.645988.
Results are given in words; binding and its absence hold for the method and conditions named. In cells and extracts the contact can be indirect. Some entries that bind do so weakly or less than the wild type.

By UniProt entry, the sequences of proteins in these tests, tags left out. Where a name states a change or a piece, a line headed by the entry shows the natural chain unless it says otherwise.
UniProt P25095: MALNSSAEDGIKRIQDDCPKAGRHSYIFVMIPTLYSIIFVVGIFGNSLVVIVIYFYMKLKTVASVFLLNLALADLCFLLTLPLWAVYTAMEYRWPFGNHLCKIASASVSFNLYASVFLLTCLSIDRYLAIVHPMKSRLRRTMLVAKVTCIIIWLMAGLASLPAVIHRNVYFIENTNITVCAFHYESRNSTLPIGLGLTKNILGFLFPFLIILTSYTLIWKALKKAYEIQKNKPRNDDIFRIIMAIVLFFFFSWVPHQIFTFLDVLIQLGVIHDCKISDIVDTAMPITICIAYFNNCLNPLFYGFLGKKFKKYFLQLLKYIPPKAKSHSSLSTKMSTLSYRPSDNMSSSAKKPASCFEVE
UniProt P29066: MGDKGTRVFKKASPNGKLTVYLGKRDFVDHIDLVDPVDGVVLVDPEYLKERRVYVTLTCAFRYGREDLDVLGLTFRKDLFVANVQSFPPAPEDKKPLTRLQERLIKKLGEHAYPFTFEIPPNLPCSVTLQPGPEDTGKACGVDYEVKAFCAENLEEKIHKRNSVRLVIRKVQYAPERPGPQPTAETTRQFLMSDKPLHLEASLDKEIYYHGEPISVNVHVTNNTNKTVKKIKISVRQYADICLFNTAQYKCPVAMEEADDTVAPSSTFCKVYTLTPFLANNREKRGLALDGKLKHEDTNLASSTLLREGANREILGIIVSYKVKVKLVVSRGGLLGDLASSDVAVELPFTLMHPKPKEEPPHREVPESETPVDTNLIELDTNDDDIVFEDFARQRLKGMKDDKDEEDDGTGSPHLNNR
UniProt P29067: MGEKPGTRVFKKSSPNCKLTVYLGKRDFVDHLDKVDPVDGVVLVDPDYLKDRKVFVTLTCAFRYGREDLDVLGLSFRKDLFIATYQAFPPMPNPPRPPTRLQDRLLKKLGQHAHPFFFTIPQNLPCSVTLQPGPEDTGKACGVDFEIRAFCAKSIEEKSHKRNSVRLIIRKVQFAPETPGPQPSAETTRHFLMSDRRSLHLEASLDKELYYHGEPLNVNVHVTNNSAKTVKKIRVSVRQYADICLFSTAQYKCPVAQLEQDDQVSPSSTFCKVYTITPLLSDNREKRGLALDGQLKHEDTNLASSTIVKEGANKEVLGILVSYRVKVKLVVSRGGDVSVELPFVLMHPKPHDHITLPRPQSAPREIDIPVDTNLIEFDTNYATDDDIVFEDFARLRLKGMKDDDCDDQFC

Tests used:
[1] = biological target: AT1 angiotensin II receptor, wild type, Luciferase-tagged (AT1R-RLuc8) (UniProt P25095); experiment: FRET or BRET; BRET between AT1R-Luciferase and mVenus-tagged β-arrestins or their AP2-binding mutants in living β-arrestin1/2 double KO HEK293 cells; 100 nM AngII, then 30 μM Losartan (or DMSO) after 5 min to follow dissociation; 37°C, modified Krebs-Ringer buffer pH 7.4
[2] = biological target: AT1 angiotensin II receptor, wild type, Luciferase-tagged (AT1R-RLuc8) (UniProt P25095); experiment: FRET or BRET; BRET between AT1R-Luciferase (wild type or DRY mutant) and mVenus-tagged β-arrestins in living β-arrestin1/2 double KO HEK293 cells; stimulation with 100 nM AngII; 37°C, modified Krebs-Ringer buffer pH 7.4, 5 μM coelenterazine h; ratios against DMSO-treated cells, AUC compared

Substance	binding [1]	binding [2]
AP2-binding mutant β-arrestin1-mVenus (R393A/R395A) (from UniProt P29066 1-418)	binds	
AP2-binding mutant β-arrestin2-mVenus (R394A/R396A) (from UniProt P29067 1-410)	binds	
β-arrestin1-mVenus (rat β-arrestin1, wild type) (from UniProt P29066 1-418)	binds	binds
β-arrestin2-mVenus (rat β-arrestin2, wild type) (from UniProt P29067 1-410)	binds	binds
